Assay results: patent US20180215829A1

The chains behind the UniProt entries cited, without tags or fusion partners. Where a name states a change or a piece, a line headed by the entry shows the natural chain unless it says otherwise.
UniProt Q8NAC3: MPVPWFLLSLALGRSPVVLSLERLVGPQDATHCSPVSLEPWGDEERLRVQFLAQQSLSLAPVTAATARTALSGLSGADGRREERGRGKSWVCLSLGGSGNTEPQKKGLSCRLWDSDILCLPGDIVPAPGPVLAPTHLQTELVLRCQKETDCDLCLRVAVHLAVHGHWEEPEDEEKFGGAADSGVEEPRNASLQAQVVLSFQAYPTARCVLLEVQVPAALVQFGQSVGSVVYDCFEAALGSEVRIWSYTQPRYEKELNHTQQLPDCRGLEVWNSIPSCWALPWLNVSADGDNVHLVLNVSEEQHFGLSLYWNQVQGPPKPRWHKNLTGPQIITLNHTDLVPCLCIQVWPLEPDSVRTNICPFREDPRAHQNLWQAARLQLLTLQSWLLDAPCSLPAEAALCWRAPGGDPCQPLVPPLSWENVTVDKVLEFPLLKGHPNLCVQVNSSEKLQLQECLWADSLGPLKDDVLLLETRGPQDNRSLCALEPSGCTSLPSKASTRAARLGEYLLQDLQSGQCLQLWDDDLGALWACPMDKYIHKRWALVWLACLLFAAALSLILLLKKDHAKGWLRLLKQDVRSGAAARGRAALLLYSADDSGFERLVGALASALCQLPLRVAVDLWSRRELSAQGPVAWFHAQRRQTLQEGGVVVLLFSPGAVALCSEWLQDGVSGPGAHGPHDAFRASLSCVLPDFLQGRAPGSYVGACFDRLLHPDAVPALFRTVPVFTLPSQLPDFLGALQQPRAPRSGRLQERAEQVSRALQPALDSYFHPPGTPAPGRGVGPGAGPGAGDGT

B1: VH 62A4 (VHH)
VHH: QVQLVESGGGLVQPGRSLTLSCTASGFTFHDYAMHWVRQPPGGGLEWVAGVSWNGNNVGYADSVKGRFTISRDNAKKSLYLQMNSLRSEDTALYYCAKGGMGSGSHPDSFSTWGQGTMVTVSS
B2: VH clone 1.2 (VHH)
VHH: EVQLVESGGGLVQPGRSLRLSCAASGFTFDDYAMHWVRQAPGKGLEWVSGISWNSGRMDYADSVKGRFTISRDNAKNSLYLQMNSLRAEDTALYYCAKEKGLGYCRGGSCSYFDYRGQGTLVTVSS
B3: VH clone 1.1 (VHH)
VHH: B2 VHH with E1Q, N77K, L93M, Y104F
B4: VH clone 2.1 (VHH)
VHH: QVQLVQSGAEVKKPGASVKVSCKASGYPFTSYDINWVRQATGQSLEWMGWMNPNSGDTVYAQKFQGRVTMTRNTSISTAYMELSSLRSEDTAVYFCARGRRDDWKNNYWGQGTLVTVSS

biological target: IL-17RC (UniProt Q8NAC3); experiment: specificity ELISA, antigen coated, anti-His-HRP detection

binding, no binding:
B1
B2
B3
B4

Positions count from the first letter of the chain named. Results are given in words; binding and its absence hold for the method and conditions named.
